In PubChem BioAssay AID1347423 (Functional Genomics Laboratory (NCATS/FGL), 2020) one finds z-score data, which are given here for 104 sequences.

In all, about 52,000 sequences went through this assay and about 210 (0.4%) were called active.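 How the source made its calls: active means gene whose silencing raises cell survival under the drug, median off-target-corrected z-score across its silencing RNAs 2 or more; inactive means the rest.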 This is one part of the list.

The assay can be described thus: Resistance to Poly (ADP-Ribose) Polymerase inhibitor: Gene Identification via Genome-wide siRNA Screen. To be noted: mouse BRCA2 R2336H ES cells, olaparib, CellTiter-Glo viability; hits give high values. Summed up: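 Mouse BRCA2 R2336H ES cells were reverse-transfected with siRNA (20 nM final), treated at 48 h with 500 nM olaparib, and read by CellTiter-Glo after 72 h. Scores: MAD-based z per siRNA, median per gene, seed off-target correction.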
For orientation: Cellular ATP, detected with luciferase, serves as a proxy for viable cell number.
Take GGCUGGUUGAAGGUUGUGATT against Epdd1: the z-score was inactive: 0.104.

As to GGGACUACCAUUUGUUAAUTT against Tktl1, the z-score was inactive: 0.41.

As for GGAAGAAGCCCAAGGACUUTT against Donson, the z-score was inactive: -2.4.

For GCAACAAAUUCCUAGGCACTT against Pmp2, the z-score is inactive: 0.278.

Turning to “CCAAAGUUAUCUUUUAUGGTT against D830013H23Rik”, the z-score is inactive: 0.806.

Regarding GCCAUUCCGGCAGUAUUACTT against Pdcd7, the z-score is inactive: 0.524.

In the case of GGAGACUGUGGAUUUAAUUTT against Sult1a1, the z-score is inactive: 0.69.

With “CGUAAUUGAUAAAACGGGATT against E130012K09”, the z-score was inactive: 0.338.

Turning to CGGCGUAUGAGGAUUGGUUTT against Atp8b1, the z-score is inactive: 1.93.

GAGCCAGUCCAUCAUGAUGTT against Pdgfrl: the z-score is inactive: -0.845.

Consider GGAUCCUGCAUCUUAUAGUTT against Tcstv3, for which the z-score was inactive: 0.114.

Regarding GGAACGAGAUGCAGCUAUCTT against Cry1, the z-score was inactive: -1.01.

With “GGCCCUUUGAGUCGUUCCUTT against 9130211I03Rik”, the z-score was inactive: -0.516.

Take GCAGGUUUGAUAUAAAAUCTT against Uble1b: the z-score is inactive: 2.01.

Take GGGACAAAUGGAUCAAGAUTT against Ganab: the z-score was inactive: -0.181.

For the sequence GGUGUGCAACCUGUUGCUCTT against Sn, the z-score is inactive: 0.271.

On to GGAAAAUCCAGAGGCUACGTT against Creg, for which the z-score was inactive: -2.06.

Consider “GGUGGCACAUCAGUGUUUGTT against 1700113O17Rik”, for which the z-score is inactive: -0.247.

In the case of GGCUGAGAAUGACAGUUCCTT against Ars2, the z-score was inactive: -1.81.

Consider GGUUUGGGAUGUUCGAGUUTT against Slc25a1, for which the z-score was inactive: -0.836.

With “CCUUCAUCUAGAAACCAAGTT against 2810446P07Rik”, the z-score is inactive: 0.942.

For GCGCAAAAGGACCUAUGAGTT against Rela, the z-score was inactive: -1.57.

For GGAACCACACAUUUAAAAUTT against Ctsh, the z-score is inactive: -0.0783.

Turning to GGAUUAUGAGAUGAAAUCUTT against Serpinb9b, the z-score was inactive: 0.871.

As for GCUUCGAUACCUUCAAACCTT against Epb7.2, the z-score was inactive: 0.431.

In the case of GCUGACCAAAGUCACUCCCTT against Aqp1, the z-score was inactive: -0.128.

For GGAAUGCAAACAGCACUUGTT against Rab33b, the z-score was inactive: 0.106.

Consider GGGAGAUCCGAAGUGGAUCTT against Sult2a2, for which the z-score is inactive: 1.28.

For GGGAACAAAAACAUAAAAGTT against Otub2, the z-score was inactive: 0.356.

Take GGCUGAGGUCACCAUCAUCTT against Lrrc16: the z-score is inactive: -1.12.

On to GGAAAGACCAUUCUGUAUUTT against Wbscr24, for which the z-score was inactive: -0.897.

Turning to GCUAUGACACGAGAAGGCATT against Mcpt7, the z-score is inactive: -0.776.

Take CGCGUCAUUAUCAAGUGCCTT against Dnpep: the z-score is inactive: 0.138.

On to GGAGUGAAAUUUACUGGGUTT against Hdgfrp3, for which the z-score was inactive: 1.78.

Turning to CCUGUAAACCAGAUAAGCCTT against Defb1, the z-score is inactive: 0.287.

Take “GGAGGUCUUUUCAGAAUAATT against 4930455C21Rik”: the z-score was inactive: -1.92.

As to GGGCACAAAGAUAUGAAUATT against Lgals3bp, the z-score was inactive: 1.49.

For the sequence GGAAGGAUCUAAUCUUUUUTT against Vamp2, the z-score is inactive: 0.376.

With GGGAGACUGCUUCUAGCUGTT against Ncdn, the z-score was inactive: 0.478.

With GGAAGCUUCAGGAGUAUAUTT against Sdc2, the z-score is inactive: -0.853.

For GUGUGACUUUUUGACUAUUTT against Klhl2, the z-score is inactive: 1.54.

Regarding GUGUUUACACCCAAAAUGCTT against Olfr906, the z-score is inactive: 1.75.

With GGGUAUGGAUUCAGGUAGATT against Ppp3r2, the z-score was inactive: 0.326.

For the sequence CGGCCUGACAUCAACCUUGTT against BC021381, the z-score is inactive: -0.799.

For UUUUCACCGAACAAAGAACTT against AI132487, the z-score is inactive: 0.0907.

On to GGCUUUGAAAGUUACCGGGTT against Sipa1, for which the z-score was inactive: 0.436.

For the sequence “GCAGGAGUCACCAUACUACTT against 2010004J24Rik”, the z-score was inactive: -0.142.

As for “CCCUGAACAAUCUGCUACATT against E130303B06Rik”, the z-score was inactive: 0.467.

With GGGCCAGUACUGUAGCUGUTT against Golga3, the z-score was inactive: 0.722.

CGUGUCAGCUAUUCAUUAATT against Osbpl5: the z-score is inactive: -0.0539.

For the sequence GGAAAACUGCGUUUGGAAATT against BC034753, the z-score was inactive: 1.73.

GGAGAUGACAAAUCUAGUGTT against DXImx49e: the z-score was inactive: 1.47.

Regarding CGACAAGACGAACAUCAAGTT against Nrn1, the z-score was inactive: 0.903.

On to GGGCUAUCUAUCAUAGUUUTT against Scp2, for which the z-score is inactive: -1.27.

“CCCAUGAACCUUAUUUGAATT against D030070L09Rik”: the z-score was inactive: 0.716.

On to GGACAACAUUGCUAAAUUUTT against Es22, for which the z-score is inactive: -0.514.

“GCCACCCUACCAUAGCAAATT against 3110007P09Rik”: the z-score was inactive: 1.17.

For the sequence GACAGUGCACGAUCUGAUUTT against Pfn3, the z-score was inactive: 0.0097.

As to “GGCAGUACUGUCCAGAUGATT against 2210006M16Rik”, the z-score is inactive: -3.26.

With CCUUUUGAUGCAUCCCGUCTT against Rya3, the z-score was inactive: 0.681.

In the case of GGAGUAGUAGCUGAAUUUGTT against Abcc3, the z-score was inactive: 1.88.

With “GAGGUUACUUCAAAGACAATT against 3110004H13Rik”, the z-score was inactive: -0.98.

In the case of CCUCCUUUUUUCUCUGUCUTT against Ugt1a12, the z-score is inactive: -1.12.

Turning to GGCUAGAGAGGAUCUUGAGTT against Cdkn2a, the z-score was inactive: 1.21.

On to GCAUUACAUAACAUGGCCATT against Sumo3, for which the z-score was inactive: 0.0802.

For the sequence “GGCCUGAUCAAGUUUCUGCTT against 1110007H17Rik”, the z-score was inactive: -0.191.

With “GGUCAUCAACCAAUUCCAGTT against 2310003P10Rik”, the z-score was inactive: 0.0666.

For the sequence GGACAUUGAGAACAUUAUCTT against Caln1, the z-score was inactive: 0.302.

As to CGAACAACAGAGUAAAAUUTT against Ank2, the z-score is inactive: 0.467.

Regarding “GGAGAUUCGGCAUUAAGACTT against 0610037H22Rik”, the z-score is inactive: 0.766.

With “GGUGACAAAAAGUCAAAGATT against 4930429A22Rik”, the z-score is inactive: -0.547.

As for GGAAUAUCCCAACAUCUGUTT against Upp1, the z-score was inactive: -0.754.

Turning to GGAGAGCGAAGAAGACUGUTT against Psen2, the z-score is inactive: -0.814.

As for GGCUUUGCACUCAGCGUACTT against Pps, the z-score was inactive: 0.872.

As to GGCUCUGUCAAGUUCAUCATT against Tgm2, the z-score is inactive: 0.753.

Take GGAAUCAAACGGACAAACATT against Lmod1: the z-score is inactive: 0.766.

For the sequence GGAGGCUGUCUGUCUAAUATT against Trim39, the z-score is inactive: 0.471.

With GGAGACAGAAACUUAACCUTT against Gns, the z-score is inactive: 0.148.

On to GGAGAAGGAGAGCUUCAUCTT against Mphosph6, for which the z-score was inactive: -1.11.

Consider GGUGUUACAGAUGUACCGATT against AY078069, for which the z-score is inactive: 0.639.

Take UGACGGUUCUAUUGAUUACTT against AI316807: the z-score was inactive: 1.54.

On to CCCUGAAAAUUAUCGAGCGTT against Galntl4, for which the z-score is inactive: -0.317.

GGAUGCUGAAGUGAAGGACTT against Myt1: the z-score was inactive: -1.01.

With GCCACUAUCUGGAUAAGGATT against Ftl1, the z-score is inactive: -1.63.

For GGUGAUUCAACUCACUUGUTT against Olfr1353, the z-score is inactive: -0.149.

As for GGGCCAUUUCAUGUUAAUUTT against Nit2, the z-score is inactive: -0.825.

As for GGAUCCCUGUAAUAUGGCATT against Spag8, the z-score is inactive: 0.403.

Regarding AGGCGGUUUUUUGUCUAUGTT against Serpina1e, the z-score is inactive: -0.9.

For GGAAGGAGGAAAAGUAGGUTT against Peli1, the z-score is inactive: 1.14.

Regarding GGUGACAAGGACGAGAUAATT against Synpo2, the z-score was inactive: -1.76.

Consider GGGAAGCAAAUCUAUACCCTT against Tnfrsf11a, for which the z-score is inactive: -1.08.

For “CCUAUCAAAGAUCAAUAGCTT against 2610507B11Rik”, the z-score was inactive: -0.0669.

Consider GGACGGCAAGUCUUAUGUGTT against Rp1h, for which the z-score is inactive: 0.423.

Take CUGGAUGCAUUAACUUCUUTT against Olfr1219: the z-score is inactive: 0.72.

For GGCCAAGGUUGCUAUUAAATT against BC033915, the z-score is inactive: 1.07.

For “CCCACGUAAGAAAAAUAGCTT against G630039H03Rik”, the z-score is inactive: -0.237.

In the case of GCAAUGUUCUCCGUAAACATT against Acas2, the z-score is inactive: 0.804.

GCACUCAUUGCCAGGGUCATT against Pycard: the z-score is inactive: -0.13.

With GGAGUUAAAUAAACACUGATT against Rnf151, the z-score was inactive: -0.0623.

As to GGUGUUGGAUCAUGAUGUUTT against Nf2, the z-score was inactive: 0.291.

Take “GGCUUUCGAAGGCAGAAGATT against 4930486L24Rik”: the z-score is inactive: 0.152.

Regarding GGCAGUAUCAAAGAAAUUGTT against Rps6ka3, the z-score was inactive: 0.767.

With GGUGUCUCCCUUUCUCCUUTT against Rpp14, the z-score is inactive: -1.03.

With “GCCUGACAUCAGUACCUUUTT against 4632424B03Rik”, the z-score was inactive: -2.15.
